Test results published in patent US20170130226.
For some assays here: A weaker result is weaker than the reference pair of the same experiment. For some assays here: Results from cells or extracts need not show a direct contact.

Tests used:
[1] = target: EGFR (on A431, LN-18 or A549 cells) (UniProt P00533); experiment: flow cytometry; details: protein on the cell surface, label: 5' biotin
EGFR = EGFR (UniProt P00533); experiment: SPR; details: purified recombinant protein, protein details: R&D Systems, amine-coupled to sensor chip, label: 5' biotin
[2] = 2'-F all C and U, medium binding, reduced Rmax, PBS, 5 mM MgCl2, 20 C

GGGAUUUAAUCGCCGUAGAAAAGCAUGUCAAAGCCGGAACCC [ALT102139.01]
binding result ([1]; 2'-F all C and U, 2'-OMe at own positions 1-4,12,15,17,18,20,21,23,25,27,30,33,36-38, LN-18 and A549 cells, equivalent to MinE07): binds

GGACGGAUUUAAUCGCCGUAGAAAAGCAUGUCAAAGCCGGAACCGUCC [ALT102099.01]
binding result (EGFR; 2'-F all C and U, 2'-OMe A42, medium binding, low Rmax, PBS, 5 mM MgCl2, 20 C): binds more weakly

GGACGGAUUUAAUCGCCGUAGAAAAGCAUGUCAAAGCCGGAACCGUCC [ALT102066.01]
binding result ([1]; 2'-F all C and U except 2'-OMe U9, A431 cells, 50 or 100 nM aptamer): binds

GGACGGAUUUAAUCGCCGUAGAAAAGCAUGUCAAAGCCGGAACCGUCC [ALT102115.01]
binding result (EGFR; 2'-F all C and U and G18, medium binding, low Rmax, PBS, 5 mM MgCl2, 20 C): binds more weakly

GGACGGAUUUAAUCGCCGUAGAAAAGCAUGUCAAAGCCGGAACCGUCC [ALT102082.01]
binding result (EGFR; 2'-F all C and U, 2'-OMe A25, medium binding, low Rmax, PBS, 5 mM MgCl2, 20 C): binds more weakly

GGACGGAUUUAAUCGCCGUAGAAAAGCAUGUCAAAGCCGGAACCGUCC [ALT102092.01]
binding result (EGFR; 2'-F all C and U, 2'-OMe A35, medium binding, low Rmax, PBS, 5 mM MgCl2, 20 C): binds more weakly

GGACGGAUUUAAUCGCCGUAGAAAAGCAUGUCAAAGCCGGAACCGUCC [ALT102079.01]
binding result (EGFR; 2'-F all C and U, 2'-OMe A22, medium binding, low Rmax, PBS, 5 mM MgCl2, 20 C): binds more weakly

GGGAUUUAAUCGCCGUAGAAAAGCAUGUCAAAGCCGGAACCC [ALT102054.01]
binding result ([1]; 2'-F all C and U, A431 and A549 cells, 50 or 100 nM aptamer, equivalent to MinE07): binds

AAAGGACGGAUUUAAUCGCCGUAGAAAAGCAUGUCAAAGCCGGAACCGUCC [ALT102145.01]
binding result ([1]; 2'-F all C and U, 2'-OMe A1-A3, LN-18 and A549 cells, equivalent to MinE07): binds

GGACGGAUUUAAUCGCCGUAGAAAAGCAUGUCAAAGCCGGAACCGUCC [ALT102135.01]
binding result ([1]; 2'-F all C and U, 2'-OMe at 1-3,5-7,15,18,20,21,23,24,26,28,30,33,36,39-41,45, LN-18 and A549 cells, equivalent to MinE07): binds

GGACGGAUUUAAUCGCCGUAGAAAAGCAUGUCAAAGCCGGAACCGUCC [ALT102100.01]
binding result (EGFR; 2'-F all C and U except 2'-OMe C43, medium binding, low Rmax, PBS, 5 mM MgCl2, 20 C): binds more weakly

CGGAUUUAAUCGCCGUAGAAAAGCAUGUCAAAGCCGGAACCGUCC [ALT102010.01]
binding result (EGFR; 2'-F all C and U, medium binding, reduced Rmax, PBS, 5 mM MgCl2, 0.05% Tween, 20 C): binds more weakly

GGACGGAUUUAAUCGCCGUAGAAAAGCAUGUCAAAGCCGGAACCGUCC [ALT102106.01]
binding result (EGFR; 2'-F all C and U and G1, medium binding, slightly lower Rmax, PBS, 5 mM MgCl2, 20 C): binds more weakly

GGAAUUUAAUCGCCGUAGAAAAGCAUGUCAAAGCCGGAACCGUCC [ALT102039.01]
binding result (EGFR; [2]): binds more weakly

UAAUCGCCGUAGAAAAGCAUGUCAAAGCCGGAACCGUCC [ALT102012.01]
binding result (EGFR; [2]): binds more weakly

GGACGGAUUUAAUCGCCGUAGAAAAGCAUGUCAAAGCCGGAACCGUCC [ALT102124.01]
binding result (EGFR; 2'-F all C and U and G30): binds more weakly

GGACGGAUUUAAUCGCCGUAGAAAAGCAUGUCAAAGCCGGAACCGUCC [ALT102113.01]
binding result (EGFR; 2'-F all C and U and A12, medium binding, low Rmax, PBS, 5 mM MgCl2, 20 C): binds more weakly

AUUUAAUCGCCGUAGAAAAGCAUGUCAAAGCCGGAACCGUCC [ALT102011.01]
binding result (EGFR; [2]): binds more weakly

GGACGGAUUUAAUCGCCGUAGAAAAGCAUGUCAAAGCCGGAACCGUCC [ALT102101.01]
binding result (EGFR; 2'-F all C and U except 2'-OMe C44, medium binding, low Rmax, PBS, 5 mM MgCl2, 20 C): binds more weakly

GGACGGAUUUAAUCGCCGUAGAAAAGCAUGUCAAAGCCGGAACCGUCC [ALT102071.01]
binding result (EGFR; 2'-F all C and U except 2'-OMe C14): binds more weakly
